Screen size: about 300,000 compounds; about 5,400 (1.8%) were called active. The inconclusive results got no clear call from the source; some entries with a clear call stand among them for comparison. The call rests on the fitted dose curve; tested in HEK293 cells. Potencies beside an inconclusive call are fits to weak or partial responses and may not hold up.
Assay: qHTS for inhibitors of binding or entry into cells for Marburg Virus
Details: Marburg virus pseudotyped entry inhibition, cell reporter; activity change, negative = inhibition: at 37.8 µM (top of the series) unless noted
On the % scale 0 is the no-effect control and ±100 the full control effect; potency means the concentration at half of the fitted maximal effect.

Question: Which Potency does the source give for `CC(C(=O)N1CCCc2c1c(=O)oc1ccc(O)cc21)N1CCc2ccccc2C1` (stereo not drawn) here?
Answer: The Potency was inconclusive: 35.5 µM [inhibitor, single point].

Question: With `CCOC(=O)c1c(/N=C/N(C)C)sc(C)c1C` as the compound, how does the Potency read?
Answer: Its Potency is inconclusive: 3.16 µM [activator, single point].

Question: For `O=S(=O)(c1ccccc1)n1nc(-c2ccccc2)nc1NCc1ccco1`, which “activity change, negative = inhibition” value is on record?
Answer: Its value is inactive: 9.51% [at 46.1 µM].

Question: For `Cc1ccc(N=Nc2c(N)n(-c3ccccc3)[nH]c2=O)cc1`, which Potency is on record?
Answer: Its Potency is inconclusive: 15.8 µM [inhibitor, single point].

Question: For `COc1ccc(CCC(=O)OC(C)C(=O)c2ccc(C)cc2)cc1` (stereo not drawn), which Potency is on record?
Answer: The Potency was inconclusive: 1.26 µM [inhibitor, single point].

Question: For `O=C(O)c1cccc(N/N=C/c2ccc(OC(F)(F)F)cc2)c1`, which Potency is on record?
Answer: Its Potency is inconclusive: 1.58 µM [inhibitor, full curve, poor fit].

Question: With `Cc1ccc(SCC(=O)NCc2ccc(F)cc2)cc1` as the compound, how does the “activity change, negative = inhibition” value read?
Answer: Its value is inactive: -1.75% [at 46.1 µM].

Question: With `C=C(CCC(=O)c1ccccc1)C(=O)c1ccccc1` as the compound, how does the Potency read?
Answer: Its Potency is inconclusive: 35.5 µM [inhibitor, single point].

Question: For `N#CC(c1ccc(F)cc1)c1ccc(C(=O)c2ccc(F)cc2)cc1` (stereo not drawn), which Potency is on record?
Answer: Its Potency is inconclusive: 15.8 µM [inhibitor, partial curve, poor fit].

Question: With `Cc1ccc(N(CC(=O)NC2CCCCCC2)S(=O)(=O)c2c(C)nn(C)c2C)cc1` as the compound, how does the Potency read?
Answer: The Potency was inconclusive: 5.8 µM [inhibitor, full curve, poor fit].

Question: For `COc1cc(/C=N/Nc2ccc(S(N)(=O)=O)cc2)cc(OC)c1OC`, which Potency is on record?
Answer: The Potency was inconclusive: 25.1 µM [inhibitor, single point].

Question: Which “activity change, negative = inhibition” value does the source give for `CCOC(=O)c1ccc(NC(=O)c2nn(CC)cc2Br)cc1` here?
Answer: Its value is inactive: -18.2%.

Question: For `COc1cc(OC)cc(C(=O)NCc2n[nH]c(=S)n2-c2ccccc2)c1`, which Potency is on record?
Answer: Its Potency is inconclusive: 29.1 µM [activator, single point].

Question: For `O=C(Nc1ccc(N2CCOCC2)cc1)c1cc2ccccc2o1`, which Potency is on record?
Answer: The Potency was inconclusive: 0.794 µM [activator, partial curve].

Question: With `CCCCc1nc2ccccc2n1CC(=O)N(COCC)c1c(C)cccc1CC` as the compound, how does the Potency read?
Answer: The Potency was inconclusive: 17.8 µM [inhibitor, single point].

Question: For `Nc1nc(SCC(=O)N2CCN(c3ccc(F)cc3)CC2)n[nH]1`, which Potency is on record?
Answer: Its Potency is inconclusive: 8.91 µM [activator, partial curve, poor fit].

Question: With `Cc1cc(C)cc(NC(=O)C2CCN(S(=O)(=O)c3ccc4c(c3)oc(=O)n4C)CC2)c1` as the compound, how does the “activity change, negative = inhibition” value read?
Answer: The value was inactive: -1.06% [at 46.1 µM].

Question: For `O=C1c2ccccc2C(=O)c2c(Nc3ccc(CCO)cc3)ccc(O)c21`, which “activity change, negative = inhibition” value is on record?
Answer: The value was inactive: 4.87%.

Question: For `CCn1c(NCc2cccs2)nc2ccccc21`, which Potency is on record?
Answer: The Potency was inconclusive: 35.5 µM [inhibitor, single point].

Question: For `COc1ccc(-c2ccc(CN3C(CC(C)C)C(=O)N(Cc4cn(CCC5OCCO5)nn4)CCS3(=O)=O)cc2)cc1OC` (stereo not drawn), which Potency is on record?
Answer: Its Potency is inconclusive: 3.15 µM [activator, partial curve, poor fit].

Question: Which Potency does the source give for `CCC1(C)CC(=O)N(c2ccc(C(=O)O)c(O)c2)C1=O` (stereo not drawn) here?
Answer: Its Potency is inconclusive: 12.6 µM [activator, partial curve, poor fit].

Question: Which Potency does the source give for `CC(=O)C(C)Oc1ccc2c3c(c(=O)oc2c1)CCCC3` (stereo not drawn) here?
Answer: The Potency was inconclusive: 6.51 µM [activator, single point].

Question: For `C[C@H](N)c1nnc(SCC(=O)N(C)C)o1`, which “activity change, negative = inhibition” value is on record?
Answer: The value was inactive: -0.381%.

Question: Which “activity change, negative = inhibition” value does the source give for `CC(=O)Nc1ccc(S(=O)(=O)N(C)CC(=O)OC(C)C(=O)N(C)Cc2ccccc2)cc1` (stereo not drawn) here?
Answer: Its value is inactive: 17.5%.

Question: With `C=CCn1c(=N)n(CC(O)COc2ccc(OC)cc2)c2ccccc21` (stereo not drawn) as the compound, how does the Potency read?
Answer: Its Potency is inconclusive: 8.2 µM [inhibitor, partial curve, poor fit].

Question: With `COc1ccc(CN2CCNC(=O)C2CC(=O)N(C)Cc2ccon2)c(F)c1` (stereo not drawn) as the compound, how does the “activity change, negative = inhibition” value read?
Answer: Its value is inactive: 29.9%.

Question: Which “activity change, negative = inhibition” value does the source give for `Cc1cn2c(=O)cc(COc3ccccc3NC(=O)c3ccc(Cl)cc3)nc2s1` here?
Answer: The value was inactive: -7.87% [at 46.1 µM].

Question: With `O=C1SCC(c2ccc(Cl)cc2Cl)=NN1Cc1nnc(-c2ccccc2)o1` as the compound, how does the Potency read?
Answer: The Potency was inconclusive: 10 µM [inhibitor, single point].

Question: Which “activity change, negative = inhibition” value does the source give for `COc1ccccc1NC(=O)C1CCN(c2cnccn2)CC1` here?
Answer: Its value is inactive: -5.77% [at 46.1 µM].

Question: With `COc1ccc(NC(=O)C(=O)NCCC2CCCCN2S(=O)(=O)c2cccs2)cc1` (stereo not drawn) as the compound, how does the Potency read?
Answer: Its Potency is inconclusive: 3.16 µM [inhibitor, partial curve, poor fit].

Question: With `O=C(Cn1cc(C(F)(F)F)ccc1=O)N/N=C/c1ccc(F)cc1` as the compound, how does the “activity change, negative = inhibition” value read?
Answer: Its value is inactive: 7.48% [at 46.1 µM].

Question: With `O=C(c1cccn2c(=O)c3ccc(Cl)cc3nc12)N1CCN(Cc2ccc3c(c2)OCO3)CC1` as the compound, how does the Potency read?
Answer: Its Potency is inconclusive: 18.3 µM [inhibitor, single point].

Question: With `Oc1ccc(N2CCN(c3ncnc4sc(-c5ccccc5)cc34)CC2)cc1` as the compound, how does the Potency read?
Answer: The Potency was inconclusive: 35.5 µM [inhibitor, single point].

Question: Which Potency does the source give for `COCCN(C(=O)C(F)(F)F)C(C(=O)NC1CCCCC1)c1ccco1` (stereo not drawn) here?
Answer: Its Potency is inconclusive: 7.3 µM [inhibitor, partial curve, poor fit].

Question: Which Potency does the source give for `O=C(NCCOc1nc(N2CCCCC2)nc(N2CCCCC2)n1)Nc1ccccc1` here?
Answer: The Potency was inconclusive: 11.2 µM [inhibitor, partial curve, poor fit].

Question: Which Potency does the source give for `O=C(CSc1ncnc2nc[nH]c12)N1CCN(c2ccc(Cl)cc2)CC1` here?
Answer: Its Potency is inconclusive: 29.1 µM [inhibitor, single point].

Question: Which “activity change, negative = inhibition” value does the source give for `CCOC(=O)C1CCN(S(=O)(=O)CCNC(=O)c2ccccc2)CC1` here?
Answer: Its value is inactive: 14.4% [at 46.1 µM].

Question: With `CCOc1ccc(-n2nc(CO)c(C(=O)NCc3cccc(OC)c3)n2)cc1` as the compound, how does the “activity change, negative = inhibition” value read?
Answer: The value was inactive: 13% [at 46.1 µM].

Question: For `Cc1cc(C(=O)CN2C(=O)NC3(CCCc4ccccc43)C2=O)c(C)n1Cc1cccs1` (stereo not drawn), which Potency is on record?
Answer: The Potency was inconclusive: 35.5 µM [inhibitor, single point].

Question: For `CN(C)CCNC(=O)c1sc2cccc(F)c2c1Cl`, which Potency is on record?
Answer: Its Potency is inconclusive: 35.5 µM [inhibitor, single point].

Question: With `COc1cccc(CN2C(=O)C(C)Oc3ccccc32)c1` (stereo not drawn) as the compound, how does the “activity change, negative = inhibition” value read?
Answer: Its value is inactive: -11.1% [at 46.1 µM].

Question: Which “activity change, negative = inhibition” value does the source give for `COC(=O)c1ccccc1NC(=O)Cn1c(=O)n(CCCC(=O)NCc2ccccc2OC)c(=O)c2ccccc21` here?
Answer: Its value is inactive: -19.8% [at 46.1 µM].

Question: For `OC1CCCN(CC(O)COC(c2ccc(F)cc2)c2ccc(F)cc2)C1` (stereo not drawn), which Potency is on record?
Answer: Its Potency is inconclusive: 2 µM [inhibitor, full curve, poor fit].

Question: Which “activity change, negative = inhibition” value does the source give for `COc1ccc(-c2cc(=O)oc3c4c(ccc23)OCN(Cc2cccc(OC)c2)C4)cc1` here?
Answer: Its value is inactive: -23.3% [at 46.1 µM].

Question: For `CCOc1ccc(NC(=O)Cn2c(=O)n(CCCC(=O)NC3CCN(Cc4ccccc4)CC3)c(=O)c3ccccc32)cc1`, which Potency is on record?
Answer: The Potency was inconclusive: 3.98 µM [inhibitor, single point].

Question: Which Potency does the source give for `CC(=O)Nc1ccc(SCC(=O)c2cc(C)n(CC(F)(F)F)c2C)cc1` here?
Answer: The Potency was inconclusive: 6.31 µM [activator, single point].

Question: With `CC1=C[C@@H](COc2ccccc2)O[C@@]2(C1)C(=O)N(Cc1ccccc1)c1ccccc12` as the compound, how does the Potency read?
Answer: Its Potency is inconclusive: 6.68 µM [inhibitor, single point].

Question: Which “activity change, negative = inhibition” value does the source give for `O=C(CCn1c(=O)[nH]c2ccsc2c1=O)N1CCc2ccccc2C1` here?
Answer: The value was inactive: 2.5%.

Question: With `COc1ccc(S(=O)(=O)N2CCOCC2)cc1NC(=O)CSc1n[nH]c(C(C)C)n1` as the compound, how does the Potency read?
Answer: Its Potency is inconclusive: 1.78 µM [activator, single point].

Question: With `CCN(CC)CCNCc1ccc(OCc2ccc(Cl)nc2)c(OC)c1` as the compound, how does the Potency read?
Answer: The Potency was inconclusive: 31.6 µM [inhibitor, single point].

Question: Which Potency does the source give for `Cc1ccccc1OCC(=O)O/N=C(\N)c1ccncc1` here?
Answer: Its Potency is inconclusive: 0.562 µM [activator, full curve, poor fit].

Question: For `COc1cc(CCC(=O)Nc2sccc2C#N)cc(OC)c1OC`, which Potency is on record?
Answer: Its Potency is inconclusive: 11.2 µM [inhibitor, partial curve, poor fit].

Question: For `CCOC(=O)CSc1nnc(Cn2nnc3ccccc32)n1-c1ccc(F)cc1`, which Potency is on record?
Answer: The Potency was “inactive”.

Question: With `O=C(Nc1ccc2c(c1)nc1n2CCSC1)c1ccco1` as the compound, how does the Potency read?
Answer: Its Potency is inconclusive: 0.651 µM [inhibitor, full curve].

Question: For `FC(F)(F)c1cccc(-c2cc(C3CCNCC3)[nH]n2)c1`, which Potency is on record?
Answer: The Potency was inconclusive: 35.5 µM [inhibitor, single point].

Question: Which Potency does the source give for `CC1CC(C)CN(CCCNC(=O)c2ccc3c(c2)NC(=O)C(N2CCCCC2)S3)C1` (stereo not drawn) here?
Answer: The Potency was inconclusive: 22.4 µM [inhibitor, single point].

Question: For `COc1ccc(-c2csc(Nc3ccccn3)n2)cc1`, which Potency is on record?
Answer: Its Potency is inconclusive: 35.5 µM [inhibitor, single point].

Question: Which Potency does the source give for `COc1ccc(C(=O)c2c(C)oc3ccc(O)c(CN4CCOCC4)c23)cc1` here?
Answer: Its Potency is active: 20.6 µM.

Question: For `CCn1c(CNc2cccc(Cl)c2)nnc1SCc1ccccc1`, which Potency is on record?
Answer: Its Potency is inconclusive: 25.9 µM [inhibitor, single point].

Question: With `O=C(Nc1ccccn1)c1ccc(Cl)c(S(=O)(=O)N2CCCC2)c1` as the compound, how does the “activity change, negative = inhibition” value read?
Answer: The value was inactive: 10.9% [at 46.1 µM].

Question: For `CCCCCOc1ccc(C(=O)NCC(=O)NCC(=O)OCC)cc1`, which Potency is on record?
Answer: Its Potency is inconclusive: 14.1 µM [inhibitor, single point].

Question: For `COc1ccc(OC)c(NC(=S)N(CCc2c(C)[nH]c3ccccc23)Cc2cccs2)c1`, which Potency is on record?
Answer: The Potency was inconclusive: 8.2 µM [inhibitor, partial curve, poor fit].

Question: With `CC1CCN(C(=O)C2CCN(C(=O)c3cc4sccc4n3Cc3ccc(F)cc3)CC2)CC1` as the compound, how does the Potency read?
Answer: The Potency was inconclusive: 29.1 µM [inhibitor, single point].

Question: For `C[C@]12CCC3C(CC[C@H]4C[C@@H](O)CC[C@]34C)C1CC[C@@H]2OC(=O)[C@H](N)CCCCN` (stereo partly drawn), which Potency is on record?
Answer: The Potency was inconclusive: 15.8 µM [inhibitor, partial curve, poor fit].

Question: Which Potency does the source give for `CCOC(=O)c1ccc(NC(=O)c2ccc(C)c(S(=O)(=O)N3CCOCC3)c2)cc1` here?
Answer: Its Potency is active: 2.82 µM.

Question: Which Potency does the source give for `O=C(/C=C/c1ccccc1)c1ccc2c(c1)OCCCCO2` here?
Answer: The Potency was inconclusive: 1 µM [activator, single point].

Question: Which “activity change, negative = inhibition” value does the source give for `Cc1ccc(NC(=O)CCN2CCN(C)CC2)cc1` here?
Answer: Its value is inactive: 1.08% [at 46.1 µM].

Question: Which “activity change, negative = inhibition” value does the source give for `Fc1ccc(C2CCCCN2Cc2nc(CC3CC3)no2)cc1` (stereo not drawn) here?
Answer: Its value is inactive: -21.2% [at 46.1 µM].

Reference: PubChem BioAssay AID540276 (National Center for Advancing Translational Sciences (NCATS), 2011)
